Experimental data reported in the supplement of paper PMC12889115.
This is one part of the list. These are raw signals, not scaled to a control.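 Primary screen: polymyxin B was added at a level permeabilizing Salmonella outer membranes while sparing inner membranes. DMSO wells, both with and without polymyxin B, established maximum growth. Plate-to-plate variation meant each plate was ranked on its own, and the lowest-OD600 compounds were selected as hits.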

System: Salmonella enterica serovar Typhimurium SL1344
Assay: bacterial growth OD600 after 18 h with compound and polymyxin B; higher = more bacterial growth (less inhibition)
Settings: 50 µM, Mueller-Hinton broth

| Compound | bacterial growth OD600 (polymyxin B 1 µg/mL) | bacterial growth OD600 (polymyxin B 0.75 µg/mL) |
| --- | --- | --- |
| C#Cc1ccc(CN2CCC(Oc3cc(OC)ccc3C(=O)NCCOC)CC2)cc1 | 1.17 |  |
| COc1cccc(OCc2cc(C(=O)N(C)C(C)c3nccs3)n[nH]2)c1 (stereo unspecified) | 0.926 |  |
| O=C(c1ccc2c(c1)OCO2)C1CCCN(C(=O)NCc2ccccc2)C1 (stereo unspecified) | 0.8 |  |
| O=C(CC(c1ccccc1)c1ccccc1F)NCCc1ccccn1 (stereo unspecified) | 0.68 |  |
| O=C(CCc1ccccc1)Nc1ccc(N2CCC(NC3Cc4ccccc4C3)CC2)cc1 |  | 0.778 |
| c1cnc(-n2cccc2CNCc2cccnc2N2CCCCCCC2)nc1 |  | 0.769 |
| Cc1n[nH]c(C)c1CCN(C)C(=O)C1CCC(=O)N(CCc2ccccn2)C1 (stereo unspecified) | 0.993 |  |
| COc1ccc(CC2(CCC(=O)NCCc3ccccc3OC)CCC(=O)N2)c(F)c1 (stereo unspecified) |  | 0.818 |
| CC(=O)c1ccc(OCC(=O)N2CCOc3ccc(CN4CCN(CCO)CC4)cc3C2)cc1 |  | 0.861 |
| COc1ccc(-c2nn(-c3ccccc3C)cc2CN(C)CC2COCCO2)cc1F (stereo unspecified) | 0.863 |  |
| CC(Cc1ccsc1)NC(=O)C1CC(Cc2ccccc2Cl)=NO1 (stereo unspecified) |  | 0.832 |
| CCN1CCN(C2(C(=O)N3CCCCCC3)Cc3ccccc3C2)CC1 |  | 0.848 |
| CCOC(=O)C1(Cc2ccc(F)cc2)CCCN(C(=O)CCCN2CCCC2=O)C1 (stereo unspecified) | 0.8 |  |
| CC(=O)N1CCN(c2ncccc2CNCc2ccccc2C(F)(F)F)CC1 |  | 0.711 |
| O=C(c1coc(CN2CCN(Cc3ccccc3)CC2)n1)N1CCCCCCC1 |  | 0.725 |
| Cc1noc(C)c1CCCNC(=O)c1ccc(N2CCSCC2)nc1 |  | 0.775 |

| Compound | bacterial growth OD600 (polymyxin B 1 µg/mL) | bacterial growth OD600 (polymyxin B 0.75 µg/mL) |
| --- | --- | --- |
| COCC(=O)N1CCC(Oc2ccccc2C(=O)NCC2CCCCC2)CC1 | 1.02 |  |
| COc1ccc(CC2(CCC(=O)NCc3nc4ccccc4c(=O)[nH]3)CCC(=O)N2)c2ccccc12 (stereo unspecified) |  | 0.848 |
| CCOC(=O)C1(CC2CC2)CCN(Cc2nccn2-c2cccc(C)c2)CC1 | 0.018 |  |
| Cc1cc(CN2CCC(O)(Cc3cc(-c4ccccc4)no3)CC2)cc(C)c1O | 0.87 |  |
| Cc1c(C(C)NC(=O)c2ccc3c(c2)C(=O)N(C)C3=O)cnn1-c1ccccn1 (stereo unspecified) | 0.988 |  |
| Cc1ccsc1C(=O)N1CCCC(N2CCN(Cc3ccc4c(c3)OCO4)CC2)C1 (stereo unspecified) | 0.865 |  |
| Cc1ccccc1N1CCN(c2ncccc2CNC(=O)C2CCOCC2)CC1 | 0.901 |  |
| CC(C)CCNC(=O)c1cn(CC(C)C)cc(C(=O)N2CCCCC2c2cccnc2)c1=O (stereo unspecified) |  | 0.907 |
| COc1ccc2ccccc2c1CN1CCCC(CO)(Cc2ccc(F)cc2)C1 (stereo unspecified) | 0.031 |  |
| O=C(c1ccc2oc(-c3cccc(F)c3)nc2c1)N1CCOc2ccccc2C1 | 1.14 |  |
| COc1ccc(-c2ccccc2NC(=O)C2CCCN(Cc3c[nH]c(C)n3)C2)cc1 (stereo unspecified) |  | 0.836 |
| CCOC(=O)N1CCN(Cc2ccc3c(c2)CN(C(=O)C#Cc2ccccc2)CCO3)CC1 |  | 0.734 |
| FC(F)(F)c1cccc(N2CCN(C3CCCN(C4CCC4)C3)CC2)c1 (stereo unspecified) | 0.923 |  |
| COc1cc(C)ccc1OCc1nc(C(=O)NCc2cccc(C)n2)co1 | 0.966 |  |
| CCOc1ccccc1-c1nc(CN2CCCCC2c2cccc(OC)c2)c(C)o1 (stereo unspecified) | 0.222 |  |

2 records drawn at random from the list so far, as already listed:

| Compound | bacterial growth OD600 (polymyxin B 1 µg/mL) | bacterial growth OD600 (polymyxin B 0.75 µg/mL) |
| --- | --- | --- |
| CCOc1ccccc1-c1nc(CN2CCCCC2c2cccc(OC)c2)c(C)o1 (stereo unspecified) | 0.222 |  |
| COc1ccc2ccccc2c1CN1CCCC(CO)(Cc2ccc(F)cc2)C1 (stereo unspecified) | 0.031 |  |
